# Assay results as given in PubChem BioAssay AID1117319 (Southern Research Institute, 2015).
# Amino acid sequences for entries named in this document (tags omitted). A change or cut given only in a name is not applied to a line headed by its entry.
# UniProt P69720: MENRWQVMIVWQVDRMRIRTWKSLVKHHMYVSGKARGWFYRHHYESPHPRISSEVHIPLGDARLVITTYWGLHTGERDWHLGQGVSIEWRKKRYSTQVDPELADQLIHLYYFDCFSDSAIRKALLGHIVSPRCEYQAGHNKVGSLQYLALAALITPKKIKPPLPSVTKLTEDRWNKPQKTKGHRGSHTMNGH
# UniProt P69721: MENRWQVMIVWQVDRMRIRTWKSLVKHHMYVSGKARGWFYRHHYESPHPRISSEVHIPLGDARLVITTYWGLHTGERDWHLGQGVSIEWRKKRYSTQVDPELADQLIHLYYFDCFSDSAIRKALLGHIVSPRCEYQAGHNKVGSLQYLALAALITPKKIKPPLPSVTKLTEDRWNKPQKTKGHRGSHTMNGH
# UniProt P69722: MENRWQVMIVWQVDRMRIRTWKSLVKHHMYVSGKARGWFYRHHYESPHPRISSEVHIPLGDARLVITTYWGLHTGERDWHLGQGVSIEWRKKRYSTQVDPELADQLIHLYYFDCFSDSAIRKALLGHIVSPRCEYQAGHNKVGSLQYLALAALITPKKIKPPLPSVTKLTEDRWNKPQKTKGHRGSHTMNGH
# UniProt P69723: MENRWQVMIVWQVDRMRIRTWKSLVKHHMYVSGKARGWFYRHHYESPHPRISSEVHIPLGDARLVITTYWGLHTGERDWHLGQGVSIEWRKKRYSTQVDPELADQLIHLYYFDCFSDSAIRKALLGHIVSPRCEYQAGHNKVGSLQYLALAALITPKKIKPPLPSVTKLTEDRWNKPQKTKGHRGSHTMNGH
# UniProt Q9HC16: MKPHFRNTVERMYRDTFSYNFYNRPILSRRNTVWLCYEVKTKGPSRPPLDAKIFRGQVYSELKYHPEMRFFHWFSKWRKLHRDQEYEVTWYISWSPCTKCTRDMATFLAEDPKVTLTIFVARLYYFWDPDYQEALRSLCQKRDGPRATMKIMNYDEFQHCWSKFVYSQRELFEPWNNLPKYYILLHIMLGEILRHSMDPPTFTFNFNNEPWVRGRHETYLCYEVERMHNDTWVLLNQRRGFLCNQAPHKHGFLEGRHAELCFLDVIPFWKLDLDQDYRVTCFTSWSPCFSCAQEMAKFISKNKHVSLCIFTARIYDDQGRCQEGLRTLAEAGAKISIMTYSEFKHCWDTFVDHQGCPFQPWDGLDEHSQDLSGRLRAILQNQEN
# The whole screen tested about 260,000 compounds, of which about 1,500 (0.58%) were called active. Inconclusive results, whose numbers are uncertain, are shown with a selection of clear calls.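 The calls were made as follows: active = inhibition above a set limit at one or more doses, reproduced on every date tested; inconclusive = results disagree between test dates, or hit never tested in dose response; inactive = the rest.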
# Biological target: Virion infectivity factor (Human immunodeficiency virus type 1 group M subtype B (isolate BH10)) + Virion infectivity factor (Human immunodeficiency virus type 1 group M subtype B (isolate BRU/LAI)) + Virion infectivity factor (Human immunodeficiency virus type 1 group M subtype B (isolate PCV12)) + Virion infectivity factor (Human immunodeficiency virus type 1 group M subtype B (isolate HXB2)) + DNA dC->dU-editing enzyme APOBEC-3G (Homo sapiens) (UniProt P69720+P69721+P69722+P69723+Q9HC16)
# Assay: inhibitors of Vif binding to APOBEC3G peptide, primary screen, biochemical, TR-FRET, GST-Vif 1-94, biotin-A3G peptide, dose response retest (AID 1117319);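 also: Vif residues 1-94 fused to GST binding biotinylated APOBEC3G peptide 110-148; 0% = full assay without inhibitor and 100% = GST in place of GST-Vif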
# Conditions: hits give high values
row,SMILES,inhibition
1,Cc1cccc(-c2nc3c(c(=O)c4ccccc4n3C)c(=O)n2-c2ccccc2)c1,inconclusive: 50.9%
2,COc1ccc(-c2[nH]ncc2-c2csc(C)n2)c(O)c1,inconclusive: 36.1%
3,CCOC(=O)c1sc2nc3c(cc2c1N)COC(C)(C)C3,inconclusive: 47.5%
4,Cc1ccc(C(=O)NC(C(=O)Nc2cccc(S(N)(=O)=O)c2)C(C)C)cc1 (configuration not stated),inconclusive: 39.1%
5,Cc1ccc(-c2cc(C(=O)NN=C3CCCC3)c3ccccc3n2)cc1,inconclusive: 41.9%
6,COc1ccc(-c2onc(C)c2-c2cnn(-c3ccccc3)c2)c(O)c1,inconclusive: 54.7%
7,CCC(c1nnnn1CCOC)N1CCN(Cc2ccccc2OC)CC1 (configuration not stated),inconclusive: 54.4%
8,COc1cc(/C=N/NC(=O)CCOc2ccccc2C)cc(Br)c1O,inconclusive: 57.2%
9,COC1=C/C(=C/c2c(O)c(C#N)c3ccccn23)C=CC1=O,inconclusive: 47%
10,CC(/C=C1\SC(=S)N(NS(=O)(=O)c2ccccc2)C1=O)=C\c1ccccc1,inactive: -6.38%
11,CN(C)CCCOc1ccc(C(C)(C)c2ccccc2)cc1,inconclusive: 42.4%
12,CC1=C(C#N)C(=O)NC(=O)/C1=C\c1ccc(-c2ccc(C)cc2[N+](=O)[O-])o1,inconclusive: 55.6%
13,CCN(CC)S(=O)(=O)c1ccc(C(=O)NCCN(C)C)cc1,inconclusive: 37.4%
14,COc1ccc(/C(C)=N/NS(=O)(=O)c2cc(C)ccc2C)c(OC)c1,inconclusive: 34.7%
15,O=C(NCc1ccccc1)NS(=O)(=O)c1ccccc1Cl,inconclusive: 47.6%
16,Cc1nc2cc(NC(=O)NCCCO)ccc2o1,inconclusive: 34.1%
17,O=C(c1ccco1)N1CCN(CC(=O)N2c3ccccc3CCc3ccccc32)CC1,inconclusive: 60.5%
18,CCc1cc(C(=O)O)c(NC(=O)C(c2ccccc2)c2ccccc2)s1,inconclusive: 59.1%
19,Cc1ccsc1C(=O)Nc1cccc(S(=O)(=O)N(C)C)c1,inconclusive: 37.1%
20,COC(=O)c1ccccc1NC(=O)CCS(=O)(=O)c1ccc(Br)s1,inactive: -6.38%
21,COc1cc(/C=C(\NC(C)=O)C(=O)Nc2ccc(NC(C)=O)cc2)ccc1OC(C)=O,inconclusive: 44.3%
22,Cc1cc(C)n(-c2cc(N3CCN(S(=O)(=O)c4ccc(Br)cc4)CC3)ccc2[N+](=O)[O-])n1,inconclusive: 34.1%

row,SMILES,inhibition
1,CC(/C=N/NC(=O)c1cc(C(C)C)[nH]n1)=C\c1ccccc1,inconclusive: 52.8%
2,CC(C)CN(C(=O)c1nn(C)c(=O)c2ccccc12)c1nc2ccccc2s1,inconclusive: 45.6%
3,CN(C)c1ccc(/C=C(/C(=O)c2ccc(Cl)cc2Cl)n2cncn2)cc1,inconclusive: 46%
4,O=C(CSCc1cnn(-c2ccccc2)c1-n1cccc1)NCc1cccs1,inconclusive: 34%
5,CCN1CC(CN(C)Cc2cn(-c3cccc(C)c3)nc2-c2cccc(F)c2)CC1=O (configuration not stated),inconclusive: 60.7%
6,OCn1c2ccccc2c2ccccc21,inconclusive: 36.7%
7,COc1ccc(S(=O)(=O)Nc2ccc(CC#N)cc2)cc1,inconclusive: 45.3%
8,CCOc1ccc(C2C(=O)N(C3CCCCC3)CC(=O)N2CC2CCCO2)cc1OC (configuration not stated),inconclusive: 57.7%
9,Cc1ccc(C)c2[nH]c(=O)c(CCNC(=O)c3cc4ccccc4o3)cc12,inactive: 24.9%
10,Cc1ccc(C)n1-c1ccc(C(=O)NN)cc1,inactive: -3.66%
11,CN(c1ccccc1)S(=O)(=O)c1ccc(Cl)nc1,inconclusive: 40.4%
12,COc1ccc(C(CCNCc2ccccc2F)c2ccc(F)cc2)cc1 (configuration not stated),inconclusive: 34.3%
13,O=C(N/N=C/c1ccc(O)cc1)/C(=C/c1ccc([N+](=O)[O-])cc1)NC(=O)c1ccccc1,inconclusive: 46.8%
14,O=C1CC(/C=C/c2ccncc2)=Nc2ccccc2N1,inactive: 3.89%
15,O=C(CSc1ccc(Cl)cc1)Nc1ccc(NC(=O)c2ccco2)cc1,inconclusive: 41.1%
16,O=C1c2ccccc2C(=O)N1CCOCCN1C(=O)c2ccccc2C1=O,inconclusive: 39.1%
17,CCN(C(=S)Nc1cccnc1)c1ccccc1,inactive: -9.76%
18,Cc1ccc2[nH]c(=O)c(CN(Cc3ccccc3)Cc3nnnn3C3CCCC3)cc2c1,inconclusive: 62.5%
19,COc1cc(NS(=O)(=O)c2ccc(NC(=O)/C=C/c3ccc([N+](=O)[O-])cc3)cc2)ncn1,inactive: 7.89%
20,COc1ccc(OC)c(C2C3=C(CC(C)(C)CC3=O)Nc3nnnn32)c1 (configuration not stated),inconclusive: 40.5%
21,O=S(=O)(NC1CCCC1)c1ccc(S(=O)(=O)N2CCN(c3ccccc3)CC2)cc1,inconclusive: 60.5%
22,CCn1c(CNC(=O)Cc2ccc(OC)cc2)nnc1SCC(=O)c1ccccc1,inconclusive: 43.9%

row,SMILES,inhibition
1,N#CCn1c(CCl)nc2ccccc2c1=O,inconclusive: 64.1%
2,CCOC(=O)c1ccc(NS(=O)(=O)CC)cc1,inconclusive: 27.8%
3,COc1ccc(NS(=O)(=O)c2ccc(NC(=S)NC(=O)c3ccc(F)cc3)cc2)nn1,inconclusive: 36.9%
4,COc1ccc(S(=O)(=O)NCC(=O)NCc2cc(=O)n(C)c(=O)n2C)cc1,inactive: -1.92%
5,CCOC(=O)c1[nH]c(C)c(C(=O)OCC(=O)N2CCc3ccccc32)c1C,inconclusive: 39.9%
6,Cc1cccc2cc(C(c3nnnn3CC3CCCO3)N3CCc4ccccc4C3)c(=O)[nH]c12 (configuration not stated),inconclusive: 45.3%
7,O=C(O)CCC(=O)Nc1ccccc1C(=O)NC1CCCCC1,inconclusive: 29.6%
8,COCCN(C(=O)COC(=O)c1cc2ccccc2cc1O)c1c(N)n(Cc2ccccc2)c(=O)[nH]c1=O,inactive: 0.53%
9,CCOc1ccc(S(=O)(=O)N(CC)CC(=O)NCc2ccncc2)cc1,inconclusive: 47.4%
10,CCC(=O)N1c2ccc(C)cc2C2=NNC(=S)NC21O (configuration not stated),inconclusive: 40.3%
11,CN(C(=S)NC(=O)C1(C)CC1(Cl)Cl)c1ccccc1 (configuration not stated),inconclusive: 60.6%
12,CCOc1cc(C(c2c(C)[nH][nH]c2=O)c2c(C)[nH][nH]c2=O)ccc1OS(=O)(=O)c1ccc(C)cc1,inconclusive: 34.7%
13,O=C1CCC/C1=C\Nc1ccc(Cl)c([N+](=O)[O-])c1,inconclusive: 33%
14,COc1ccccc1C(CNC(=O)c1ccc(OCc2c(C)noc2C)cc1)N1CCCC1 (configuration not stated),inactive: 7.05%
15,Oc1[nH]c2ccccc2c1N=Nc1ccc(F)cc1,inactive: -2.74%
16,Cn1nc(N2CCN(S(=O)(=O)c3ccccc3)CC2)c(=O)n(C)c1=O,inconclusive: 52.3%
17,COc1ccc(C(=O)C(C)Oc2cccc(NC(=O)c3cccc([N+](=O)[O-])c3)c2)cc1 (configuration not stated),inconclusive: 45.4%
18,NC(=O)[C@@H]1CCCCNc2c(I)cc([N+](=O)[O-])cc2C(=O)N[C@@H](CCC(=O)O)C(=O)N[C@@H](CO)C(=O)N1,inconclusive: 38.6%
19,CC(CN1CCCCC1)OC(=O)C1c2ccccc2Oc2ccccc21 (configuration not stated),inconclusive: 44.9%
20,Cc1nc(C(=O)O)nn1-c1cc(Cl)ccc1Cl,inactive: 2.06%
21,Cc1ccc(C(=O)/C=C/c2ccc3c(c2)OCO3)o1,inconclusive: 33.5%
22,COc1ccc(C(=O)N/N=C/c2ccc(SC)cc2)cc1,inactive: -0.44%

row,SMILES,inhibition
1,CCOC(=O)C1=C(Cc2ccc(F)cc2)C(=O)c2ccccc2C1=O,inconclusive: 56.1%
2,O=C(COC(=O)CNS(=O)(=O)c1c(Cl)cccc1Cl)Nc1ccccc1Sc1ccccc1,inconclusive: 36.1%
3,Cc1ccc(/C=N/NC(=O)c2nnn(-c3nonc3N)c2C(C)C)o1,inconclusive: 33.5%
4,O=C(/C(=C/O)N=Nc1cccc(C(F)(F)F)c1)c1ccccc1,inconclusive: 34%
5,COc1ccc(CNC(=O)C(c2ccncc2)N(C(=O)Cc2cccs2)c2cccnc2)cc1 (configuration not stated),inactive: 2.85%
6,Cc1cc(C)cc(NC(=O)CC2Oc3ccc(C)cc3NC2=O)c1 (configuration not stated),inconclusive: 33.6%
7,CCOC(=O)Cn1nc(C(F)F)c(Br)c1C,inconclusive: 40.9%
8,N/C(=N\OS(=O)(=O)c1ccc(Cl)cc1)c1ccncc1,inconclusive: 56%
9,COc1ccc(OC)c(NC(=O)CN2CCC(NC(=O)c3ccccc3C)CC2)c1,inconclusive: 60.2%
10,O=C(N/N=C\C=C\c1ccco1)C1COc2ccccc2O1 (configuration not stated),inconclusive: 57.1%
11,CCOc1cc(S(=O)(=O)NCc2ccncc2)c(C)cc1C,inconclusive: 43.3%
12,NC(=O)CSc1nnc(-c2cccnc2)n1Cc1ccccc1,inconclusive: 45.7%
13,CC(C)N(CCNC(=O)C1CCN(S(=O)(=O)N2CCOCC2)CC1)Cc1ccccc1,inconclusive: 37.8%
14,Cc1ccc(CSc2nnc(NC(=O)Cn3cnc4ccccc4c3=O)s2)cc1,inconclusive: 34.9%
15,CCC1CCCCN1C(=O)c1cc(-c2ccc(Cl)c(Cl)c2)on1 (configuration not stated),inconclusive: 33.3%
16,CCOC(=O)NC(=O)/C(C#N)=N\Nc1cccc(Cl)c1,inconclusive: 35.3%
17,CCCN(CC(=O)Nc1cccc(S(N)(=O)=O)c1)CC(=O)Nc1ccc(F)c(F)c1F,inactive: 9.36%
18,Cc1ccc(S(=O)(=O)NNC(=O)Cc2cccn2C)cc1,inconclusive: 35.8%
19,O=C(COc1ccc(Cl)cc1Cl)N(Cc1ccco1)C1CCS(=O)(=O)C1 (configuration not stated),inactive: -2.82%
20,CCCNc1nc2c(c(=O)n(C)c(=O)n2C)n1CCCc1ccccc1,inconclusive: 39.5%
21,CCCc1nnc(NC(=O)Nc2ccc(OC)cc2)s1,inconclusive: 53.2%

# Rewritten bar-delimited: 6 of the compounds above
row | SMILES | inhibition
4 | O=C(/C(=C/O)N=Nc1cccc(C(F)(F)F)c1)c1ccccc1 | inconclusive: 34%
9 | COc1ccc(OC)c(NC(=O)CN2CCC(NC(=O)c3ccccc3C)CC2)c1 | inconclusive: 60.2%
12 | NC(=O)CSc1nnc(-c2cccnc2)n1Cc1ccccc1 | inconclusive: 45.7%
16 | CCOC(=O)NC(=O)/C(C#N)=N\Nc1cccc(Cl)c1 | inconclusive: 35.3%
18 | Cc1ccc(S(=O)(=O)NNC(=O)Cc2cccn2C)cc1 | inconclusive: 35.8%
19 | O=C(COc1ccc(Cl)cc1Cl)N(Cc1ccco1)C1CCS(=O)(=O)C1 (configuration not stated) | inactive: -2.82%
